46 compounds from the supplement of paper PMC8007513 can be followed below.

In this test the test system is Saccharomyces cerevisiae BY4743. Briefly: growth (OD600) with compound + IPBC relative to untreated control; higher = less growth inhibition. Particulars: compound concentration: 133 uM; IPBC concentration: 0.5 ug/ml; 20 h. On the procedure:
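NMCCC compounds (133 uM) combined with IPBC (0.5 ug/ml) against Saccharomyces cerevisiae BY4743 in YPD, 96-well plates. Growth was read as OD600 at 20 h and expressed as % of the untreated control. Single pass.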

Some of the results follow. Most values come without repeats; read them as rough.

`Cc1c(C(=O)O)cc(-c2ccc(F)cc2)n1C` + CCCCNC(=O)OCC#CI [3-iodo-2-propynyl butylcarbamate (IPBC)]: the growth came to 80.2%. Turning to `CCS(=O)(=O)N1CCc2cc(C(=O)COC(=O)c3cc(Cl)ccc3O)ccc21` + CCCCNC(=O)OCC#CI [3-iodo-2-propynyl butylcarbamate (IPBC)], the growth amounted to 92.9%. The figure for `CCOC(=O)N1CCN(C(=O)c2noc3c2CCCCC3)CC1` + CCCCNC(=O)OCC#CI [3-iodo-2-propynyl butylcarbamate (IPBC)] is 103%; for `CC(NS(=O)(=O)c1ccc(Cl)c(Cl)c1)C(=O)Nc1cccc(C#N)c1` (stereo unspecified) + CCCCNC(=O)OCC#CI [3-iodo-2-propynyl butylcarbamate (IPBC)] it is 87.5%. As for `CCOC(=O)c1c(C)n(C)c2ccc(O)c(S(=O)(=O)c3ccc(OC)cc3)c12` + CCCCNC(=O)OCC#CI [3-iodo-2-propynyl butylcarbamate (IPBC)], the growth came to 89.1%. With `O=C(NCCO)c1nnc(Cc2ccc3c(c2)OCO3)o1` + CCCCNC(=O)OCC#CI [3-iodo-2-propynyl butylcarbamate (IPBC)], the growth came to 92.3%. With `CC1CCN(C(=O)C(NC(=O)NC(C)c2cccs2)c2ccccc2)CC1` (stereo unspecified) + CCCCNC(=O)OCC#CI [3-iodo-2-propynyl butylcarbamate (IPBC)], the growth stood at 96.7%. Turning to `CCc1c(C)nc(SCC(=O)N2CCN(c3ccccc3OC)CC2)nc1O` + CCCCNC(=O)OCC#CI [3-iodo-2-propynyl butylcarbamate (IPBC)], the growth stood at 105%. To `CN(CCNC(=O)N\C1=C\N(C)C(=O)C2=CC=CC=C12)C3CCCCC3` + CCCCNC(=O)OCC#CI [3-iodo-2-propynyl butylcarbamate (IPBC)] belongs 94.3%; to `Cc1nc(C)c(CCC(=O)Nc2ccnn2Cc2ccc(C(F)(F)F)cc2)c(O)n1` + CCCCNC(=O)OCC#CI [3-iodo-2-propynyl butylcarbamate (IPBC)], 116%. Regarding `CCN(CC)[S](=O)(=O)C1=CC(=CC=C1C)C/2=N/N(CC(=O)NC3=CC=C(C=C3)C(C)=O)C(=O)/C=C2` + CCCCNC(=O)OCC#CI [3-iodo-2-propynyl butylcarbamate (IPBC)], the growth came out at 75.8%. The figure for `CN(C)S(=O)(=O)c1ccc2c(c1)N(CC(=O)N1CCCCCC1)CCS2` + CCCCNC(=O)OCC#CI [3-iodo-2-propynyl butylcarbamate (IPBC)] is 90.4%; for `CCOC(=O)c1cc2n(n1)CC(C)(C(=O)NCCC(C)C)N(c1ccc(F)cc1)C2=O` (stereo unspecified) + CCCCNC(=O)OCC#CI [3-iodo-2-propynyl butylcarbamate (IPBC)] it is 95.5%; for `COc1ccc(CCNC(=O)C2CCC(=O)N2S(=O)(=O)c2ccc(C)cc2)cc1` (stereo unspecified) + CCCCNC(=O)OCC#CI [3-iodo-2-propynyl butylcarbamate (IPBC)] it is 89.2%.

As for `Cc1nn(C)c(C)c1CNS(=O)(=O)c1ccc2c(c1)oc(=O)n2C` + CCCCNC(=O)OCC#CI [3-iodo-2-propynyl butylcarbamate (IPBC)], the growth was 85.6%. To `Cc1nn(CC(C)C)c2sc(C(=O)OCC(=O)NC(=O)NCC(C)C)cc12` + CCCCNC(=O)OCC#CI [3-iodo-2-propynyl butylcarbamate (IPBC)] belongs 89.4%; to `COc1ccc(-c2onc(C)c2C)cc1S(=O)(=O)N(C)C(C)CCc1ccco1` (stereo unspecified) + CCCCNC(=O)OCC#CI [3-iodo-2-propynyl butylcarbamate (IPBC)], 99.1%; to `CCOC(=O)c1cc(C(=O)N2CCOCC2)nn1C` + CCCCNC(=O)OCC#CI [3-iodo-2-propynyl butylcarbamate (IPBC)], 92%. Regarding `COc1ccc(-c2nc(C(=O)OCC(=O)Nc3sccc3C(N)=O)cs2)cc1OC` + CCCCNC(=O)OCC#CI [3-iodo-2-propynyl butylcarbamate (IPBC)], the growth stood at 98.5%. The figure for `CCC(=O)N1CCc2cc(Br)c(S(=O)(=O)N3CCN(CC)CC3)cc21` + CCCCNC(=O)OCC#CI [3-iodo-2-propynyl butylcarbamate (IPBC)] is 80%. The figure for `COCCN(Cc1cccs1)S(=O)(=O)c1ccc(-c2cc(C(F)(F)F)on2)s1` + CCCCNC(=O)OCC#CI [3-iodo-2-propynyl butylcarbamate (IPBC)] is 91.9%; for `NS(=O)(=O)c1ccc(CCN2C(=O)NC(NC(=O)c3ccccc3)(C(F)(F)F)C2=O)cc1` (stereo unspecified) + CCCCNC(=O)OCC#CI [3-iodo-2-propynyl butylcarbamate (IPBC)] it is 108%. As for `O=C(CSc1ccc2c(c1)OCCCO2)NC1CCS(=O)(=O)C1` (stereo unspecified) + CCCCNC(=O)OCC#CI [3-iodo-2-propynyl butylcarbamate (IPBC)], the growth was 104%. To `CC(C)c1ccc(C(=O)Cn2cnc(C#N)n2)c(C(C)C)c1` + CCCCNC(=O)OCC#CI [3-iodo-2-propynyl butylcarbamate (IPBC)] belongs 97.3%. For the compound `CCOC(=O)c1[nH]c(C)c(C(=O)Nc2cccc(Cl)c2C)c1C` + CCCCNC(=O)OCC#CI [3-iodo-2-propynyl butylcarbamate (IPBC)], the growth was 93.6%. The figure for `CC(=O)N1\N=C(/OC12CCCC2)C3=CC=C(C=C3)C(C)(C)C` + CCCCNC(=O)OCC#CI [3-iodo-2-propynyl butylcarbamate (IPBC)] is 103%. In the case of `COc1ccc(-c2cnn3c(C(F)(F)F)cc(C(F)(F)F)nc23)cc1OC` + CCCCNC(=O)OCC#CI [3-iodo-2-propynyl butylcarbamate (IPBC)], the growth was 102%.

In the case of `Cc1nc(COC(=O)C(C)Oc2ccc(C#N)cc2)nc2ccccc12` (stereo unspecified) + CCCCNC(=O)OCC#CI [3-iodo-2-propynyl butylcarbamate (IPBC)], the growth turned out to be 94.2%.

As for `CCC(C(=O)Nc1nnc(CCc2ccc(OC)cc2)s1)c1ccccc1` (stereo unspecified) + CCCCNC(=O)OCC#CI [3-iodo-2-propynyl butylcarbamate (IPBC)], the growth was determined as 83.4%. The figure for `COc1ccc(S(=O)(=O)N(C)C)cc1NC(=O)CNC(c1ccccc1)C(C)C` (stereo unspecified) + CCCCNC(=O)OCC#CI [3-iodo-2-propynyl butylcarbamate (IPBC)] is 90.8%; for `Cc1cc(C)c2c(N)c(-c3ccccn3)sc2n1` + CCCCNC(=O)OCC#CI [3-iodo-2-propynyl butylcarbamate (IPBC)] it is 81.4%. The figure for `Cc1cc(C(=O)COc2ccc(NC(=O)c3ccco3)cc2)c(C)n1C` + CCCCNC(=O)OCC#CI [3-iodo-2-propynyl butylcarbamate (IPBC)] is 86.5%; for `CCCC/1=C/C(=O)N/2\N=C(/SC2=N1)N(C)CC(=O)NCC3=CC(=CC=C3OC)Br` + CCCCNC(=O)OCC#CI [3-iodo-2-propynyl butylcarbamate (IPBC)] it is 97.6%.

In the case of `Cc1nc(C2(NC(=O)C(C)Oc3ccc(C#N)cc3)CCCCC2)no1` (stereo unspecified) + CCCCNC(=O)OCC#CI [3-iodo-2-propynyl butylcarbamate (IPBC)], the growth was 102%.

As for `CCOC(=O)c1c(C)[nH]c(C)c1S(=O)(=O)NCC(=O)N1CCN(CC)CC1` + CCCCNC(=O)OCC#CI [3-iodo-2-propynyl butylcarbamate (IPBC)], the growth amounted to 104%. Take `CCOc1ccccc1NC(=O)C(Sc1nc(N)cc(O)n1)c1ccccc1` (stereo unspecified) + CCCCNC(=O)OCC#CI [3-iodo-2-propynyl butylcarbamate (IPBC)]: the growth was determined as 110%.

In the case of `CCN(CC)c1nc2sc(C(=O)OCc3nccs3)cc2s1` + CCCCNC(=O)OCC#CI [3-iodo-2-propynyl butylcarbamate (IPBC)], the growth is 86.8%. Regarding `CCSc1nnc2c(n1)OC(CC)N(C(C)=O)c1ccccc1-2` (stereo unspecified) + CCCCNC(=O)OCC#CI [3-iodo-2-propynyl butylcarbamate (IPBC)], the growth was 89.7%. Consider `NC(=O)c1cc(Cl)ccc1OCC(=O)Nc1ccc(N2CCCCC2)cc1` + CCCCNC(=O)OCC#CI [3-iodo-2-propynyl butylcarbamate (IPBC)], for which the growth turned out to be 99.6%. In the case of `COc1ccc(-n2ccnc2SCC(=O)NCC2CN(CC(C)C)CCO2)cc1` (stereo unspecified) + CCCCNC(=O)OCC#CI [3-iodo-2-propynyl butylcarbamate (IPBC)], the growth was 98.6%.

Regarding `CCc1nn2c(Cc3c(Cl)cccc3Cl)nnc2s1` + CCCCNC(=O)OCC#CI [3-iodo-2-propynyl butylcarbamate (IPBC)], the growth amounted to 100%.

Regarding `CCOC(=O)N1CCN(C(=O)CN(c2ccccc2)S(=O)(=O)c2ccc(OCC)cc2)CC1` + CCCCNC(=O)OCC#CI [3-iodo-2-propynyl butylcarbamate (IPBC)], the growth was found to be 94.4%. To `COC(=O)c1cc(S(=O)(=O)Nc2cc(C)cc(C)c2)cn1C` + CCCCNC(=O)OCC#CI [3-iodo-2-propynyl butylcarbamate (IPBC)] belongs 114%; to `COC1=CC=CC(=C1)C/2=N/[S](=O)(=O)N(C)/C(=C2)C(=O)NC3=C[N](N=C3)C(C)C` + CCCCNC(=O)OCC#CI [3-iodo-2-propynyl butylcarbamate (IPBC)], 107%.

`CCCCn1nc(C)c(C(=O)NC(c2nc3ccccc3[nH]2)C(C)C)c1Cl` (stereo unspecified) + CCCCNC(=O)OCC#CI [3-iodo-2-propynyl butylcarbamate (IPBC)]: the growth worked out at 106%. On to `COC(=O)\C1=C(/C)N\2C(=O)CSC2=N/C1C3=CC(=CC=C3OC)OC` (stereo unspecified) + CCCCNC(=O)OCC#CI [3-iodo-2-propynyl butylcarbamate (IPBC)], for which the growth stood at 86.3%.
